Reference: publication PMC8126209, “Phytochemical Profile and In Vitro Antioxidant, Antimicrobial, Vital Physiological Enzymes Inhibitory and Cytotoxic Effects of Artemisia jordanica Leaves Essential Oil from Palestine” (Molecules, 2021)
Values after ≈ are worked out from the molar mass of the structure shown. Like-named read-outs stand apart in the source and are kept apart here.

Legend:
S. aureus = assay: Broth microdilution MIC, S. aureus; type: cell-based, Staphylococcus aureus (ATCC 25923)
Procedure: (§1) The antibacterial effect of (AJ) EO was determined utilizing several strains of bacteria, which were obtained from the American Type Culture Collection (ATCC): Pseudomonas aeruginosa (ATCC 9027), Escherichia coli (ATCC 25922), Klebsiella pneumonia (ATCC 13883), Proteus vulgaris (ATCC 8427), and Staphylococcus aureus (ATCC 25923), and from a diagnostically confirmed methicillin-resistant Staphylococcus aureus (MRSA). The antifungal activity of (AJ) EO was evaluated against the growth of Candida albicans (ATCC 90028). The antimicrobial activity of the (AJ) EO used in this study was estimated using the broth microdilution method. The (AJ) EO was dissolved in DMSO to a concentration of 200 µg/mL. The produced solution was serially micro-diluted (2-fold) 10 times in sterile Mueller–Hinton broth (Thermo Fisher Scientific, Waltham, MA, USA). The dilution processes were performed under aseptic conditions in 96-well plates. In the micro-wells that were assigned to evaluate the antibacterial activity of (AJ) EO, micro-well number 11 contained plant-free Mueller–Hinton broth, which was used as a positive control for microbial growth. Micro-well number 12 contained plant-free and microbial-free Mueller–Hinton broth, which was used as a negative control for microbial growth. Micro-wells numbered 1–11 were inoculated aseptically with the test microbes. The (AJ) EO antimicrobial activity was determined in triplicate. All the inoculated plates were incubated at 35 °C. Regarding C. albicans, the same method was used but using RPMI media (Thermo Fisher Scientific, Waltham, MA, USA) instead of Mueller–Hinton broth. The incubation period lasted for about 18–24 h for those plates inoculated with the test bacterial strains and for about 48 h for those plates inoculated with C. albicans. […]

E. coli = assay: Broth microdilution MIC, E. coli; type: cell-based, Escherichia coli (ATCC 25922); settings: Escherichia coli
Procedure: as §1, with “Micro-wells numbered 1–11 were inoculated aseptically with the test microbes.” left out, “triplicate.” for “triplicate. All the inoculated plates were incubated at 35 °C. Regarding C. albicans, the same method was used but using RPMI media (Thermo Fisher Scientific, Waltham, MA, USA) instead of Mueller–Hinton broth. The incubation period lasted for about 18–24 h for those plates inoculated with the test bacterial strains and for about 48 h for those plates inoculated with C. albicans.”

P. aeruginosa = assay: Broth microdilution MIC, P. aeruginosa; type: cell-based, Pseudomonas aeruginosa (ATCC 9027); settings: Pseudomonas aeruginosa
Procedure: as §1, with “Micro-wells numbered 1–11 were inoculated aseptically with the test microbes.” left out, “triplicate.” for “triplicate. All the inoculated plates were incubated at 35 °C. Regarding C. albicans, the same method was used but using RPMI media (Thermo Fisher Scientific, Waltham, MA, USA) instead of Mueller–Hinton broth. The incubation period lasted for about 18–24 h for those plates inoculated with the test bacterial strains and for about 48 h for those plates inoculated with C. albicans.”

MCF7 = assay: MTS cytotoxicity assay, MCF7; type: cell-based; settings: Homo sapiens, 24 h, read-out: IC50 against MCF7
Procedure: The liver (Hep3B), breast (MCF-7), Human cervical (HeLa), and Colon (CACO-2) tumor cell lines were cultivated separately in RPMI-1640 media (Sigma, Norwich, UK), which was treated with 1% L-glutamine (Sigma, London, UK), 1% penicillin/streptomycin antibiotics (BI, New Delhi, India), and 10% fetal bovine serum. Cancer cells were grown at 37 °C in a humidified atmosphere with 5% CO2. Cells were seeded at 2.6 × 10^4 cells/well in a 96-well plate. […] Cell viability was evaluated by the CellTilter 96® Aqueous One Solution Cell Proliferation (MTS) Assay according to the manufacturer’s directions (Promega Corporation, Madison, WI, USA). At the end of the treatment, 20 μL of MTS solution per 100 μL of media was added to each well, and the solutions in the well plates were incubated at 37 °C for 2 h. The absorbance was measured at 490 nm.

C. albicans = assay: Broth microdilution MIC, C. albicans; type: cell-based, Candida albicans (ATCC 90028); settings: RPMI media, 48 h
Procedure: as §1, with “Micro-wells numbered 1–11 were inoculated aseptically with the test microbes.” left out, “triplicate.” for “triplicate. All the inoculated plates were incubated at 35 °C. Regarding C. albicans, the same method was used but using RPMI media (Thermo Fisher Scientific, Waltham, MA, USA) instead of Mueller–Hinton broth. The incubation period lasted for about 18–24 h for those plates inoculated with the test bacterial strains and for about 48 h for those plates inoculated with C. albicans.”

[1] = Staphylococcus aureus, read-out: MIC

For `CC1(C)S[C@@H]2[C@H](NC(=O)[C@H](N)c3ccccc3)C(=O)N2[C@H]1C(=O)O` [Ampicillin, ampicillin], the MIC (S. aureus; [1]) was 3.12 µg/mL (≈ 8.93 µM) and the MIC (E. coli) was 3.12 µg/mL (≈ 8.93 µM).
Molecule `O=C(O)c1cn(C2CC2)c2cc(N3CCNCC3)c(F)cc2c1=O` [Ciprofloxacin, ciprofloxacin] has an MIC (P. aeruginosa) of 3.12 µg/mL (≈ 9.42 µM), an MIC (S. aureus) of 0.78 µg/mL (≈ 2.35 µM) and an MIC (S. aureus; [1]) of 0.78 µg/mL (≈ 2.35 µM). The MIC (E. coli) was 1.56 µg/mL (≈ 4.71 µM).
`COc1cccc2c1C(=O)c1c(O)c3c(c(O)c1C2=O)C[C@@](O)(C(=O)CO)C[C@@H]3O[C@H]1C[C@H](N)[C@H](O)[C@H](C)O1` [doxorubicin] gave an IC50 (MCF7) of 0.43 ± 0.06 µg/mL (≈ 0.791 µM).
`OC(Cn1cncn1)(Cn1cncn1)c1ccc(F)cc1F` [Fluconazole, fluconazole] showed an MIC (C. albicans; Candida albicans, read-out: MIC) of 1.56 µg/mL (≈ 5.09 µM) and an MIC (C. albicans) of 1.56 µg/mL (≈ 5.09 µM).
